To fix the notation:
B1: Ab0358 (antibody, IgG4, V domains shown)
VH: QVTLKESGPVLVKPTETLTLTCTVSGFSLNNARVGVSWIRQPPGKALEWLAHIFSNDEKSYSTSLKSRLTISKDTSKSQVVLTMTNMDPVDTATYYCARSVVTGGYYYEGMDVWGQGTTVTVSS
VL: SYVLTQPPSVSVAPGQTARITCGGSNIGSESVHWYQQKPGQAPVLVVYEASDRPSGIPERFSGSNSGNTATLTISRVEAGDEADYYCQVWHGSSDHVVFGGGTKLTVLG
B2: Ab0417 (antibody, IgG4, V domains shown)
VH: QVTLKESGPVLVKPTETLTLTCTVSGFSLNNARVGVSWIRQPPGKALEWLAHIFSNDEKSYSTSLKSRLTISKDTSKSQVVLTMTNMDPVDTATYYCARSVVTGGYYYEGMDVWGQGTTVTVSS
VL: SYVLTQPPSVSVAPGQTARITCGGSNIGSESVHWYQQKPGQAPVLVVYYESDRPSGIPERFSGSNSGNTATLTISRVEAGDEADYYCQVWHGESDHVVFGGGTKLTVLG
B3: Ab0333 (antibody, IgG4, V domains shown)
VH: QVTLKESGPVLVKPTETLTLTCTVSGFSLNNARVGVSWIRQPPGKALEWLAHIFSNDEKSYSTSLKSRLTISKDTSKSQVVLTMTNMDPVDTATYYCARSVVTGGYYYEGMDVWGQGTTVTVSS
VL: SYVLTQPPSVSVAPGQTARITCGGSNIGSESVHWYQQKPGQAPVLVVYSYSDRPSGIPERFSGSNSGNTATLTISRVEAGDEADYYCQVWAGSSDHVVFGGGTKLTVLG
B4: Ab0352 (antibody, IgG4, V domains shown)
VH: QVTLKESGPVLVKPTETLTLTCTVSGFSLNNARVGVSWIRQPPGKALEWLAHIFSNDEKSYSTSLKSRLTISKDTSKSQVVLTMTNMDPVDTATYYCARSVVTGGYYYEGMDVWGQGTTVTVSS
VL: SYVLTQPPSVSVAPGQTARITCGGSNIGSESVHWYQQKPGQAPVLVVYEESDRPSGIPERFSGSNSGNTATLTISRVEAGDEADYYCQVWEGSSDHVVFGGGTKLTVLG
B5: Ab0353 (antibody, IgG4, V domains shown)
VH: QVTLKESGPVLVKPTETLTLTCTVSGFSLNNARVGVSWIRQPPGKALEWLAHIFSNDEKSYSTSLKSRLTISKDTSKSQVVLTMTNMDPVDTATYYCARSVVTGGYYYEGMDVWGQGTTVTVSS
VL: SYVLTQPPSVSVAPGQTARITCGGSNIGSESVHWYQQKPGQAPVLVVYEESDRPSGIPERFSGSNSGNTATLTISRVEAGDEADYYCQVWEGASDHVVFGGGTKLTVLG
B6: Ab0338 (antibody, IgG4, V domains shown)
VH: QVTLKESGPVLVKPTETLTLTCTVSGFSLNNARVGVSWIRQPPGKALEWLAHIFSNDEKSYSTSLKSRLTISKDTSKSQVVLTMTNMDPVDTATYYCARSVVTGGYYYEGMDVWGQGTTVTVSS
VL: SYVLTQPPSVSVAPGQTARITCGGSNIGSESVHWYQQKPGQAPVLVVYSSSDRPSGIPERFSGSNSGNTATLTISRVEAGDEADYYCQVWAGSSDHVVFGGGTKLTVLG
B7: Ab0340 (antibody, IgG4, V domains shown)
VH: QVTLKESGPVLVKPTETLTLTCTVSGFSLNNARVGVSWIRQPPGKALEWLAHIFSNDEKSYSTSLKSRLTISKDTSKSQVVLTMTNMDPVDTATYYCARSVVTGGYYYEGMDVWGQGTTVTVSS
VL: SYVLTQPPSVSVAPGQTARITCGGSNIGSESVHWYQQKPGQAPVLVVYAESDRPSGIPERFSGSNSGNTATLTISRVEAGDEADYYCQVWEGSSDHVVFGGGTKLTVLG
B8: Ab0360 (antibody, IgG4, V domains shown)
VH: QVTLKESGPVLVKPTETLTLTCTVSGFSLNNARVGVSWIRQPPGKALEWLAHIFSNDEKSYSTSLKSRLTISKDTSKSQVVLTMTNMDPVDTATYYCARSVVTGGYYYEGMDVWGQGTTVTVSS
VL: SYVLTQPPSVSVAPGQTARITCGGSNIGSESVHWYQQKPGQAPVLVVYEHSDRPSGIPERFSGSNSGNTATLTISRVEAGDEADYYCQVWEGSSDHVVFGGGTKLTVLG
B9: Ab0361 (antibody, IgG4, V domains shown)
VH: QVTLKESGPVLVKPTETLTLTCTVSGFSLNNARVGVSWIRQPPGKALEWLAHIFSNDEKSYSTSLKSRLTISKDTSKSQVVLTMTNMDPVDTATYYCARSVVTGGYYYEGMDVWGQGTTVTVSS
VL: SYVLTQPPSVSVAPGQTARITCGGSNIGSESVHWYQQKPGQAPVLVVYESSDRPSGIPERFSGSNSGNTATLTISRVEAGDEADYYCQVWEGSSDHVVFGGGTKLTVLG
B10: Ab0350 (antibody, IgG4, V domains shown)
VH: QVTLKESGPVLVKPTETLTLTCTVSGFSLNNARVGVSWIRQPPGKALEWLAHIFSNDEKSYSTSLKSRLTISKDTSKSQVVLTMTNMDPVDTATYYCARSVVTGGYYYEGMDVWGQGTTVTVSS
VL: SYVLTQPPSVSVAPGQTARITCGGSNIGSESVHWYQQKPGQAPVLVVYEESDRPSGIPERFSGSNSGNTATLTISRVEAGDEADYYCQVWAGSSDHVVFGGGTKLTVLG
B11: Ab0345 (antibody, IgG4, V domains shown)
VH: QVTLKESGPVLVKPTETLTLTCTVSGFSLNNARVGVSWIRQPPGKALEWLAHIFSNDEKSYSTSLKSRLTISKDTSKSQVVLTMTNMDPVDTATYYCARSVVTGGYYYEGMDVWGQGTTVTVSS
VL: SYVLTQPPSVSVAPGQTARITCGGSNIGSESVHWYQQKPGQAPVLVVYAASDRPSGIPERFSGSNSGNTATLTISRVEAGDEADYYCQVWEGASDHVVFGGGTKLTVLG
B12: Ab0416 (antibody, IgG4, V domains shown)
VH: QVTLKESGPVLVKPTETLTLTCTVSGFSLNNARVGVSWIRQPPGKALEWLAHIFSNDEKSYSTSLKSRLTISKDTSKSQVVLTMTNMDPVDTATYYCARSVVTGGYYYEGMDVWGQGTTVTVSS
VL: SYVLTQPPSVSVAPGQTARITCGGSNIGSESVHWYQQKPGQAPVLVVYYESDRPSGIPERFSGSNSGNTATLTISRVEAGDEADYYCQVWEGESDHVVFGGGTKLTVLG
B13: Ab0332 (antibody, IgG4, V domains shown)
VH: QVTLKESGPVLVKPTETLTLTCTVSGFSLNNARVGVSWIRQPPGKALEWLAHIFSNDEKSYSTSLKSRLTISKDTSKSQVVLTMTNMDPVDTATYYCARSVVTGGYYYEGMDVWGQGTTVTVSS
VL: SYVLTQPPSVSVAPGQTARITCGGSNIGSESVHWYQQKPGQAPVLVVYSESDRPSGIPERFSGSNSGNTATLTISRVEAGDEADYYCQVWEGASDHVVFGGGTKLTVLG
B14: Ab0364 (antibody, IgG4, V domains shown)
VH: QVTLKESGPVLVKPTETLTLTCTVSGFSLNNARVGVSWIRQPPGKALEWLAHIFSNDEKSYSTSLKSRLTISKDTSKSQVVLTMTNMDPVDTATYYCARSVVTGGYYYEGMDVWGQGTTVTVSS
VL: SYVLTQPPSVSVAPGQTARITCGGANIGSESVHWYQQKPGQAPVLVVYEESDRPSGIPERFSGSNSGNTATLTISRVEAGDEADYYCQVWEGSSDHVVFGGGTKLTVLG
B15: Ab0357 (antibody, IgG4, V domains shown)
VH: QVTLKESGPVLVKPTETLTLTCTVSGFSLNNARVGVSWIRQPPGKALEWLAHIFSNDEKSYSTSLKSRLTISKDTSKSQVVLTMTNMDPVDTATYYCARSVVTGGYYYEGMDVWGQGTTVTVSS
VL: SYVLTQPPSVSVAPGQTARITCGGSNIGSESVHWYQQKPGQAPVLVVYEASDRPSGIPERFSGSNSGNTATLTISRVEAGDEADYYCQVWEGSSDHVVFGGGTKLTVLG
B16: Ab0355 (antibody, IgG4, V domains shown)
VH: QVTLKESGPVLVKPTETLTLTCTVSGFSLNNARVGVSWIRQPPGKALEWLAHIFSNDEKSYSTSLKSRLTISKDTSKSQVVLTMTNMDPVDTATYYCARSVVTGGYYYEGMDVWGQGTTVTVSS
VL: SYVLTQPPSVSVAPGQTARITCGGSNIGSESVHWYQQKPGQAPVLVVYEYSDRPSGIPERFSGSNSGNTATLTISRVEAGDEADYYCQVWEGSSDHVVFGGGTKLTVLG
B17: Ab0415 (antibody, IgG4, V domains shown)
VH: QVTLKESGPVLVKPTETLTLTCTVSGFSLNNARVGVSWIRQPPGKALEWLAHIFSNDEKSYSTSLKSRLTISKDTSKSQVVLTMTNMDPVDTATYYCARSVVTGGYYYEGMDVWGQGTTVTVSS
VL: SYVLTQPPSVSVAPGQTARITCGGSNIGSESVHWYQQKPGQAPVLVVYYESDRPSGIPERFSGSNSGNTATLTISRVEAGDEADYYCQVWAGESDHVVFGGGTKLTVLG
B18: Ab0330 (antibody, IgG4, V domains shown)
VH: QVTLKESGPVLVKPTETLTLTCTVSGFSLNNARVGVSWIRQPPGKALEWLAHIFSNDEKSYSTSLKSRLTISKDTSKSQVVLTMTNMDPVDTATYYCARSVVTGGYYYEGMDVWGQGTTVTVSS
VL: SYVLTQPPSVSVAPGQTARITCGGSNIGSESVHWYQQKPGQAPVLVVYSESDRPSGIPERFSGSNSGNTATLTISRVEAGDEADYYCQVWAGESDHVVFGGGTKLTVLG
B19: Ab0326 (antibody, IgG4, V domains shown)
VH: QVTLKESGPVLVKPTETLTLTCTVSGFSLNNARVGVSWIRQPPGKALEWLAHIFSNDEKSYSTSLKSRLTISKDTSKSQVVLTMTNMDPVDTATYYCARSVVTGGYYYEGMDVWGQGTTVTVSS
VL: SYVLTQPPSVSVAPGQTARITCGGSNIGSESVHWYQQKPGQAPVLVVYYESDRPSGIPERFSGSNSGNTATLTISRVEAGDEADYYCQVWEGSSDHVVFGGGTKLTVLG
B20: Ab0354 (antibody, IgG4, V domains shown)
VH: QVTLKESGPVLVKPTETLTLTCTVSGFSLNNARVGVSWIRQPPGKALEWLAHIFSNDEKSYSTSLKSRLTISKDTSKSQVVLTMTNMDPVDTATYYCARSVVTGGYYYEGMDVWGQGTTVTVSS
VL: SYVLTQPPSVSVAPGQTARITCGGSNIGSESVHWYQQKPGQAPVLVVYEESDRPSGIPERFSGSNSGNTATLTISRVEAGDEADYYCQVWHGSSDHVVFGGGTKLTVLG
B21: Ab0344 (antibody, IgG4, V domains shown)
VH: QVTLKESGPVLVKPTETLTLTCTVSGFSLNNARVGVSWIRQPPGKALEWLAHIFSNDEKSYSTSLKSRLTISKDTSKSQVVLTMTNMDPVDTATYYCARSVVTGGYYYEGMDVWGQGTTVTVSS
VL: SYVLTQPPSVSVAPGQTARITCGGSNIGSESVHWYQQKPGQAPVLVVYAASDRPSGIPERFSGSNSGNTATLTISRVEAGDEADYYCQVWEGSSDHVVFGGGTKLTVLG

Protein sequences, listed by entry. Tags and fused reporters are not part of them. Residues count along the entry.
UniProt Q86Z14, residues 53-997: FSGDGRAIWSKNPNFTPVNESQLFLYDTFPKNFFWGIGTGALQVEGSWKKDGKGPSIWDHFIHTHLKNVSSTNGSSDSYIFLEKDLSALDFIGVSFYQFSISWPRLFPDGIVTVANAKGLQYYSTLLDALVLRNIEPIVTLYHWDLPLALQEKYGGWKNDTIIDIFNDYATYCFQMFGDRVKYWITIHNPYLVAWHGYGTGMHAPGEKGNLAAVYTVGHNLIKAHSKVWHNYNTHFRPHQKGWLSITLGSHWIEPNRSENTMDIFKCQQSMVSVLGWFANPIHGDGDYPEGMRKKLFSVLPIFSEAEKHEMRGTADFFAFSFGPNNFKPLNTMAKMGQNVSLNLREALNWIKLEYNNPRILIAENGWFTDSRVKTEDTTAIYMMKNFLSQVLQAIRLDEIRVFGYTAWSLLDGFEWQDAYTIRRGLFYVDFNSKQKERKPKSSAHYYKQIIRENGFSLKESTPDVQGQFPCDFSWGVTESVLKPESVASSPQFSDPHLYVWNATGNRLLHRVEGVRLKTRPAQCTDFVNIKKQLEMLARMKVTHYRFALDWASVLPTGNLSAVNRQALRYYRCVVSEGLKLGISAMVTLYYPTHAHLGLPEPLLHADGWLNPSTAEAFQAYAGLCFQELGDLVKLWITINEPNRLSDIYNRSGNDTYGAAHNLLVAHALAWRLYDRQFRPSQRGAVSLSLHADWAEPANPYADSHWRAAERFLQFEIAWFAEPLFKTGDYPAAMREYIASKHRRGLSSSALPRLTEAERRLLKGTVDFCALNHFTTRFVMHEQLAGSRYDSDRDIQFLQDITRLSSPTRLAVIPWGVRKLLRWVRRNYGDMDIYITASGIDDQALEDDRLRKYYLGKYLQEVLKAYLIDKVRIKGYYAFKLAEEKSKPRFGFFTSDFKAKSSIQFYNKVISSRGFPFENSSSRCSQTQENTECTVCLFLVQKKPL

No constants are given. Whether binding was seen depends on the method and setting. Some results given as binding are weak or reduced against the parent protein; the word gives no strength.

One test concerns the target human beta-Klotho (KLB) (human) (UniProt Q86Z14). Kind of test: SPR on human KLB; koff (panel C) and KD (panel D), mean +/- SEM, n=3 [D].
Regarding B1, the binding result is “binds”.

On to B2, for which the binding result is reported as “binds”.

In the case of B3, the binding entry is listed as “binds”.

B4: the binding result is “binds”.

In the case of B5, the binding entry was “binds”.

On to B6, for which the binding entry is “binds”.

For the next test the target is unchanged. The test is described as follows: SPR on human KLB; koff (panel C), mean +/- SEM, n=3.
For the molecule B7, the binding entry was “binds”.

Regarding B8, the binding entry is “binds”.

As for B9, the binding entry is reported as “binds”.

In the case of B10, the binding result is reported as “binds”.

Take B11: the binding entry was “binds”.

For the molecule B12, the binding entry is listed as “binds”.

With B13, the binding result is “binds”.

For B14, the binding result is reported as “binds”.

In the case of B15, the binding result is reported as “binds”.

With B16, the binding entry is “binds”.

Turning to B17, the binding result was “binds”.

With B18, the binding result is recorded as “binds”.

As to B19, the binding entry is “binds”.

With B20, the binding entry was “binds”.

Regarding B21, the binding result was “binds”.
